Measurements: paper PMC9459147

Amino acid sequences for entries named in this document (tags omitted). Residues count along the entry.
UniProt Q01705, residues 19-2531: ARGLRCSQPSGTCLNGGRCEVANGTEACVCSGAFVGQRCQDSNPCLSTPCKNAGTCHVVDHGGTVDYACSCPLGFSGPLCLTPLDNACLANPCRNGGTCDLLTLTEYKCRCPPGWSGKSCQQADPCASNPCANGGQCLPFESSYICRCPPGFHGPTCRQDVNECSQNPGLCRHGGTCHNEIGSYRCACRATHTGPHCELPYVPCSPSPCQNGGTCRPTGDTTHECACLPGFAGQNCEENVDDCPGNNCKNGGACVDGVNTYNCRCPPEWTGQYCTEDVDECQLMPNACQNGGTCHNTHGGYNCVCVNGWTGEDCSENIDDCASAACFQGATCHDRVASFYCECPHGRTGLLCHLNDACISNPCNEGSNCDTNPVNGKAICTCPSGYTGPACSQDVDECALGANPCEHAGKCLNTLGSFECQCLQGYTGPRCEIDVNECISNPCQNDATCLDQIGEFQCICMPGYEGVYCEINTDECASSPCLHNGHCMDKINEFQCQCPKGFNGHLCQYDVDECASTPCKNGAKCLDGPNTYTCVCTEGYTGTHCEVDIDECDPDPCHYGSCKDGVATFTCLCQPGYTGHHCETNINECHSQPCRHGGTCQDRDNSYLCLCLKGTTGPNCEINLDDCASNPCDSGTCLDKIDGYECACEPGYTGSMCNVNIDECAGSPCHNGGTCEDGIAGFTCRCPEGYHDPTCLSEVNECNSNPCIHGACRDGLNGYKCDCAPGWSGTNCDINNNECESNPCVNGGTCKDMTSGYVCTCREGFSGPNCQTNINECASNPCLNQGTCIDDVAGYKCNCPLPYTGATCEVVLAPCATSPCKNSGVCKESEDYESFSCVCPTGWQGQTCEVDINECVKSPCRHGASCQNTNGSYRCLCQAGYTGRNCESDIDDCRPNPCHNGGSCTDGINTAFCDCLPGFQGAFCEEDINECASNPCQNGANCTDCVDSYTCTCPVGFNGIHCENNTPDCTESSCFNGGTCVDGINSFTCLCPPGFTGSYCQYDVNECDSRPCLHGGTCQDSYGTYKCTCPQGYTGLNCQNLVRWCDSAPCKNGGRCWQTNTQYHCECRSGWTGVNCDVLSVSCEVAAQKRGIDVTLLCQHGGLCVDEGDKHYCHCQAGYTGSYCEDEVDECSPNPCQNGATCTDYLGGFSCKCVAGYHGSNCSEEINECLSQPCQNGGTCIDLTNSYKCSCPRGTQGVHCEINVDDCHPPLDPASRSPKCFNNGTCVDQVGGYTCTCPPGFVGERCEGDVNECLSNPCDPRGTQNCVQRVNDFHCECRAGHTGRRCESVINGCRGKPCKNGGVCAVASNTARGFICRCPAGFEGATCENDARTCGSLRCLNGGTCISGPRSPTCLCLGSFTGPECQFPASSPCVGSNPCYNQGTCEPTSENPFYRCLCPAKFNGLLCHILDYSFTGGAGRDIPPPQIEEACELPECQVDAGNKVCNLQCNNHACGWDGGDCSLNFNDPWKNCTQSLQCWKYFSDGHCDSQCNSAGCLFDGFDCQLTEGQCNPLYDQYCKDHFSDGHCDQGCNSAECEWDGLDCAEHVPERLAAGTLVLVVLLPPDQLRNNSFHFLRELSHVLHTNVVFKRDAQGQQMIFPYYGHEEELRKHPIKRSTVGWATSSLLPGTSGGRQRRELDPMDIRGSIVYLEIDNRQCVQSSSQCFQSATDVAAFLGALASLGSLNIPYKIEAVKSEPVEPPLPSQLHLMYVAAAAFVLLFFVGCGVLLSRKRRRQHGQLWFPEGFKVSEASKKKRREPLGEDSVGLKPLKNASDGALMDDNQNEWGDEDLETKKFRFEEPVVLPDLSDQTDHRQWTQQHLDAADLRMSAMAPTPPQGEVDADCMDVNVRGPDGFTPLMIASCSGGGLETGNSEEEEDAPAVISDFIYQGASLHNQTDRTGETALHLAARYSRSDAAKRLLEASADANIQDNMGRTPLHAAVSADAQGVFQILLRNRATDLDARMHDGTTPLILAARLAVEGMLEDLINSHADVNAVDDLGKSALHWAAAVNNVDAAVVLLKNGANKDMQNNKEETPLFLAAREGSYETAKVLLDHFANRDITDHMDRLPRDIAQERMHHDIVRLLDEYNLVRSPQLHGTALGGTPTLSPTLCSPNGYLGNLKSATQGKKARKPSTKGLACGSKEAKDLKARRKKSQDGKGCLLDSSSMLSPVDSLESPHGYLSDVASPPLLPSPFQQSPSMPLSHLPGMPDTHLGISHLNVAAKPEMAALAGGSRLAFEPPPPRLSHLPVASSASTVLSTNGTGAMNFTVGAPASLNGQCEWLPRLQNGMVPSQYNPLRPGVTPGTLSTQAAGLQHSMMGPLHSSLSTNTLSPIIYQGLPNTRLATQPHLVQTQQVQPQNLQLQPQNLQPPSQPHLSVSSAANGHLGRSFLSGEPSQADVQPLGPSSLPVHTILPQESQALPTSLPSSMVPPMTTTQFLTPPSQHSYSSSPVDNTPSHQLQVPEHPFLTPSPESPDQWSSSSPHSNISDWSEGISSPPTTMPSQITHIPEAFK
UniProt Q3TTA7: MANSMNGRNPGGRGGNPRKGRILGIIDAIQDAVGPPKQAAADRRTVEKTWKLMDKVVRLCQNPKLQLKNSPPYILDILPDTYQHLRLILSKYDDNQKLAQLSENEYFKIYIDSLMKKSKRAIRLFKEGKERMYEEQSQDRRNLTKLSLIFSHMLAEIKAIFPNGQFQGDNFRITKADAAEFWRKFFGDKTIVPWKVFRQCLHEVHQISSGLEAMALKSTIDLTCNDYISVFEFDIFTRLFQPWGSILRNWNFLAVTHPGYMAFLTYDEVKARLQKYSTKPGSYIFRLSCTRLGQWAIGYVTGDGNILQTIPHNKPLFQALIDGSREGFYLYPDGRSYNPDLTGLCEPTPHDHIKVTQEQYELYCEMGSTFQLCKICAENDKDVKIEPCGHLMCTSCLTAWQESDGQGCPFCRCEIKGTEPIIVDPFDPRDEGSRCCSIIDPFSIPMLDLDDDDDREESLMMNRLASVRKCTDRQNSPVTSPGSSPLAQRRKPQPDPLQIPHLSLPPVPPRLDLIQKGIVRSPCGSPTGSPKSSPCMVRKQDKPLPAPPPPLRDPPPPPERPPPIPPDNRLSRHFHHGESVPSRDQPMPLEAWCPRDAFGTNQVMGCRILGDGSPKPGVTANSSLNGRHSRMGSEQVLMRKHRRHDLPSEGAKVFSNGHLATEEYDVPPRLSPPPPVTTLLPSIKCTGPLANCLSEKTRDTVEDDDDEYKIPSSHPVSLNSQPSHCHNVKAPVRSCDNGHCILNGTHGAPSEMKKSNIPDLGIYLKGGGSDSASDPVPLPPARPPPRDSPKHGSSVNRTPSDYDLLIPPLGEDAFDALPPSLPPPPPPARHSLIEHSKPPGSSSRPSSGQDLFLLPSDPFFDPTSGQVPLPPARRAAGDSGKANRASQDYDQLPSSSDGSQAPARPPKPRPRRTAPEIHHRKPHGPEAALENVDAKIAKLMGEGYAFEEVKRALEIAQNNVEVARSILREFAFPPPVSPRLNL
UniProt Q8BGG7: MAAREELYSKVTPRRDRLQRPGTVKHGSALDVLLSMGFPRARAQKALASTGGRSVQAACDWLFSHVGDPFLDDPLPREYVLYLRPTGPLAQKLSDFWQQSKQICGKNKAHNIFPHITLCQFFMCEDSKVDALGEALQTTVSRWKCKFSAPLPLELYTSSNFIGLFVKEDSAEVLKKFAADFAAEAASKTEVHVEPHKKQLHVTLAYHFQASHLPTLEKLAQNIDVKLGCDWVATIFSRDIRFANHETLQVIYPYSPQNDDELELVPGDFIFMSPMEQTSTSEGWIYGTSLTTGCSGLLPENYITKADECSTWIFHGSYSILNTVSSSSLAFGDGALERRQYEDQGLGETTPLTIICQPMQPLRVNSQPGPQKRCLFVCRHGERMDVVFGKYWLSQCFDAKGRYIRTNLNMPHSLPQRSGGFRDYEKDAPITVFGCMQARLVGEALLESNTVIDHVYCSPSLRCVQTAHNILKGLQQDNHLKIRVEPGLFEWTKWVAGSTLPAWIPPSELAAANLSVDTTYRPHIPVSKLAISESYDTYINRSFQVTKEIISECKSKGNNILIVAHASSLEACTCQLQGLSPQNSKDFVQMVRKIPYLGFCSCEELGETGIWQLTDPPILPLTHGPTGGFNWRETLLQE

Target: Notch1 (endogenous, primary mouse CD8+ T-cells) (mouse (endogenous in primary CD8+ T-cells)) (UniProt Q01705)
Assay: affinity purification with mass spectrometry; Notch1 immunoprecipitated (MS-compatible magnetic IP kit) from lysates of primary mouse CD8+ T-cells stimulated with anti-CD3/CD28 and treated with vehicle, 1 µM ZM-241385, 1 µM CGS-21680 or both; trypsin digest, DIA on an Orbitrap Exploris 480

Substance	binding
Casitas B-lineage lymphoma b (Cbl-b), endogenous (from UniProt Q3TTA7 1-982) (enzyme)	binds
Suppressor of T-cell receptor signaling 1 (STS-1), endogenous (from UniProt Q8BGG7 1-638) (enzyme)	binds

Results are given in words; binding and its absence hold for the method and conditions named. In cells and extracts the contact can be indirect. Here binding means that the protein was enriched with, or labelled near, the bait; the list need not be complete.
